Results are given in words; binding and its absence hold for the method and conditions named. Some binding calls cover weakened binding; strength is not graded here.
Target: T1, EMR2 (EGF-like module-containing mucin-like hormone receptor-like 2) isoform 4 ectodomain, purified and biotinylated (UniProt Q9UHX3)
T1 sequence (biotinylated in vitro using the BirA enzyme, looked up): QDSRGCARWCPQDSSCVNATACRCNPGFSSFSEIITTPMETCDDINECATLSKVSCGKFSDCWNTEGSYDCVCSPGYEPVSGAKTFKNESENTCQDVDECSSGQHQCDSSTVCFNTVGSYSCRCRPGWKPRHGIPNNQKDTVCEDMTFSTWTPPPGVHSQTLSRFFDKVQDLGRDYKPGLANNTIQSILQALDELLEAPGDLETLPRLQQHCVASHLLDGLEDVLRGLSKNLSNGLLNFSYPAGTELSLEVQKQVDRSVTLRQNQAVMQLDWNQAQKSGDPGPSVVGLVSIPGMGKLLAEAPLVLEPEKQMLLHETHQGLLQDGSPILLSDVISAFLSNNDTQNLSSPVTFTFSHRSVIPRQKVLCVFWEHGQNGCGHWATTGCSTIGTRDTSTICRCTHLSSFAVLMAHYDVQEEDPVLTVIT
Assay: bead-based binding titration (biotinylated antigen on streptavidin beads, flow cytometry)

Amino acid sequences for entries named in this document (tags omitted). Residues count along the entry.
UniProt P48960, residues 21-835: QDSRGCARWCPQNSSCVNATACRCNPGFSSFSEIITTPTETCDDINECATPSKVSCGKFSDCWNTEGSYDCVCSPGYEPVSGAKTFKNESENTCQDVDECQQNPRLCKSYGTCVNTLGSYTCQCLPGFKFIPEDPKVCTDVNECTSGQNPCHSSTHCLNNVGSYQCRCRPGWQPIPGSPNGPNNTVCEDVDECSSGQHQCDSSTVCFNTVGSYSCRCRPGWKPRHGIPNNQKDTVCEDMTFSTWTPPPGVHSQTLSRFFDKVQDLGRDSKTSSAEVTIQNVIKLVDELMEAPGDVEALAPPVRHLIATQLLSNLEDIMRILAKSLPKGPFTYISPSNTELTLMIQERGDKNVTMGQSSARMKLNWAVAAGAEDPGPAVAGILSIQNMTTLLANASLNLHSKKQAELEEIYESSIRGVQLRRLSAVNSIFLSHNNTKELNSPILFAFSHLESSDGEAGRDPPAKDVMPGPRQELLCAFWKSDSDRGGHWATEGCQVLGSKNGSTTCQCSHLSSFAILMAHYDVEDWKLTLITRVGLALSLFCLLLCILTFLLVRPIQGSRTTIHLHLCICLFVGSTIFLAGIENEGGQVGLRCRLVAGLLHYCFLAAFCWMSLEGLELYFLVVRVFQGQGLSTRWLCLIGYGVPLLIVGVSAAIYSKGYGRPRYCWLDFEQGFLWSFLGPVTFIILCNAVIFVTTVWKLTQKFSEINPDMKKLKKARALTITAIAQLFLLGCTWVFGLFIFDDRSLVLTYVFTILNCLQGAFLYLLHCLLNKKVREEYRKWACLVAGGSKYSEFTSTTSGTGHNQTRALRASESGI

| Binder | binding |
| --- | --- |
| Fab B23 (Fab, V domains shown, first discovery campaign; also called Antibody Clone B23) VH: EVQLVESGGGLVQPGGSLRLSCAASGFTVSSSSIHWVRQAPGKGLEWVASIYPYSGSTSYADSVKGRFTISADTSKNTAYLQMNSLRAEDTAVYYCARSLGWHRHYNYYFYFYANAIDYWGQGTLVTVSS VL: DIQMTQSPSSLSASVGDRVTITCRASQSVSSAVAWYQQKPGKAPKLLIYSASSLYSGVPSRFSGSRSGTDFTLTISSLQPEDFATYYCQQYWGSDPITFGQGTKVEIKR | no binding (tested: 50 nM) |
| Fab B25 (Fab, V domains shown, first discovery campaign; also called Antibody Clone B25) VH: EVQLVESGGGLVQPGGSLRLSCAASGFTISSSSIHWVRQAPGKGLEWVASISSYSGSTSYADSVKGRFTISADTSKNTAYLQMNSLRAEDTAVYYCARSFFKYYLWYGYHNYWSAIDYWGQGTLVTVSS VL: DIQMTQSPSSLSASVGDRVTITCRASQSVSSAVAWYQQKPGKAPKLLIYSASSLYSGVPSRFSGSRSGTDFTLTISSLQPEDFATYYCQQSSSSLITFGQGTKVEIKR | no binding (tested: 50 nM) |
| Fab B34 (Fab, V domains shown, first discovery campaign; also called Antibody Clone B34) VH: EVQLVESGGGLVQPGGSLRLSCAASGFTVSYSSIHWVRQAPGKGLEWVASIYSSSGYTSYADSVKGRFTISADTSKNTAYLQMNSLRAEDTAVYYCARSYYRYYLSPIYWGSWGMDYWGQGTLVTVSS VL: DIQMTQSPSSLSASVGDRVTITCRASQSVSSAVAWYQQKPGKAPKLLIYSASSLYSGVPSRFSGSRSGTDFTLTISSLQPEDFATYYCQQSGYYGHLITFGQGTKVEIKR | no binding (tested: 50 nM) |
| Fab C14 (Fab, V domains shown, first discovery campaign; also called Antibody Clone C14) VH: EVQLVESGGGLVQPGGSLRLSCAASGFTVSSSSIHWVRQAPGKGLEWVASIYSYSGSTSYADSVKGRFTISADTSKNTAYLQMNSLRAEDTAVYYCARSFGWGQSFYYSHYFYITAFDYWGQGTLVTVSS VL: DIQMTQSPSSLSASVGDRVTITCRASQSVSSAVAWYQQKPGKAPKLLIYSASSLYSGVPSRFSGSRSGTDFTLTISSLQPEDFATYYCQQYWHESLITFGQGTKVEIKR | no binding (tested: 50 nM) |
| Fab A1 (Fab, V domains shown, first discovery campaign; also called Antibody Clone A1) VH: EVQLVESGGGLVQPGGSLRLSCAASGFTISSSSIHWVRQAPGKGLEWVASIYSYYGSTYYADSVKGRFTISADTSKNTAYLQMNSLRAEDTAVYYCARPVYGQLGYWTQRWSGMDYWGQGTLVTVSS VL: DIQMTQSPSSLSASVGDRVTITCRASQSVSSAVAWYQQKPGKAPKLLIYSASSLYSGVPSRFSGSRSGTDFTLTISSLQPEDFATYYCQQYSWSSYLITFGQGTKVEIKR | no binding (tested: 50 nM) |
| Fab B20 (Fab, V domains shown, first discovery campaign; also called Antibody Clone B20) VH: EVQLVESGGGLVQPGGSLRLSCAASGFTISSSSIHWVRQAPGKGLEWVASISSSSGSTSYADSVKGRFTISADTSKNTAYLQMNSLRAEDTAVYYCARIRHYHWYEIPYWDWAIDYWGQGTLVTVSS VL: DIQMTQSPSSLSASVGDRVTITCRASQSVSSAVAWYQQKPGKAPKLLIYSASSLYSGVPSRFSGSRSGTDFTLTISSLQPEDFATYYCQQSSSSLITFGQGTKVEIKR | no binding (tested: 50 nM) |
| Fab B3 (Fab, V domains shown, first discovery campaign; also called Antibody Clone B3) VH: EVQLVESGGGLVQPGGSLRLSCAASGFTFSSSSIHWVRQAPGKGLEWVASISPYSGYTSYADSVKGRFTISADTSKNTAYLQMNSLRAEDTAVYYCARAYYYWSHWYMHYVSYPGGMDYWGQGTLVTVSS VL: DIQMTQSPSSLSASVGDRVTITCRASQSVSSAVAWYQQKPGKAPKLLIYSASSLYSGVPSRFSGSRSGTDFTLTISSLQPEDFATYYCQQLRHYSHLITFGQGTKVEIKR | no binding (tested: 50 nM) |

Target: T1, EMR2 (EGF-like module-containing mucin-like hormone receptor-like 2) isoform 4 ectodomain, purified and biotinylated
Assay: bead-based binding titration (biotinylated antigen on streptavidin beads, flow cytometry) [Continued]

| Binder | binding |
| --- | --- |
| Fab D9 (Fab, V domains shown, first discovery campaign; also called Antibody Clone D9) VH: EVQLVESGGGLVQPGGSLRLSCAASGFTVSSSSIHWVRQAPGKGLEWVASISSYYGYTSYADSVKGRFTISADTSKNTAYLQMNSLRAEDTAVYYCARYPMFSYYYWYYGMDYWGQGTLVTVSS VL: DIQMTQSPSSLSASVGDRVTITCRASQSVSSAVAWYQQKPGKAPKLLIYSASSLYSGVPSRFSGSRSGTDFTLTISSLQPEDFATYYCQQSSGYPVTFGQGTKVEIKR | no binding (tested: 50 nM) |
| Fab D12 (Fab, V domains shown, first discovery campaign; also called Antibody Clone D12) VH: EVQLVESGGGLVQPGGSLRLSCAASGFTFSSSSIHWVRQAPGKGLEWVASISSSSGSTSYADSVKGRFTISADTSKNTAYLQMNSLRAEDTAVYYCARIRHYHWYEIPYWDWAIDYWGQGTLVTVSS VL: DIQMTQSPSSLSASVGDRVTITCRASQSVSSAVAWYQQKPGKAPKLLIYSASSLYSGVPSRFSGSRSGTDFTLTISSLQPEDFATYYCQQSSSSLITFGQGTKVEIKR | no binding (tested: 50 nM) |
| Fab D25 (Fab, V domains shown, first discovery campaign; also called Antibody Clone D25) VH: EVQLVESGGGLVQPGGSLRLSCAASGFTFSSSSIHWVRQAPGKGLEWVASISPYYGSTSYADSVKGRFTISADTSKNTAYLQMNSLRAEDTAVYYCARKLEWGMFFWSPYFRALDYWGQGTLVTVSS VL: DIQMTQSPSSLSASVGDRVTITCRASQSVSSAVAWYQQKPGKAPKLLIYSASSLYSGVPSRFSGSRSGTDFTLTISSLQPEDFATYYCQQSSSSLITFGQGTKVEIKR | no binding (tested: 300 nM) |

Target: E1-E5-GAIN (human) (UniProt P48960)
Assay: staining of ExpiCHO cells expressing the CD97 construct, gated on expression tag, flow cytometry

| Binder | binding |
| --- | --- |
| Antibody clone 2V10, human IgG1 LALA-PG format (antibody, V domains shown) VH: EVQLVESGGGLVQPGGSLRLSCAASGFTISSSSIHWVRQAPGKGLEWVAYIYPSSGSTSYADSVKGRFTISADTSKNTAYLQMNSLRAEDTAVYYCARPWYYSTFNKKWWDYQGLDYWGQGTLVTVSS VL: DIQMTQSPSSLSASVGDRVTITCRASQSVSSAVAWYQQKPGKAPKLLIYSASSLYSGVPSRFSGSRSGTDFTLTISSLQPEDFATYYCQQSWWDPITFGQGTKVEIKR | binds |

Source: patent US20250051474A1, “ANTI-CD97 ANTIBODIES AND ANTIBODY-DRUG CONJUGATES” (New York University, priority 2023, published 2025)
